This note sets out measurements from US20190119700A1.

The target of the test is T1, IRF7-GlucC fusion protein (human), Q92985.
T1 chain: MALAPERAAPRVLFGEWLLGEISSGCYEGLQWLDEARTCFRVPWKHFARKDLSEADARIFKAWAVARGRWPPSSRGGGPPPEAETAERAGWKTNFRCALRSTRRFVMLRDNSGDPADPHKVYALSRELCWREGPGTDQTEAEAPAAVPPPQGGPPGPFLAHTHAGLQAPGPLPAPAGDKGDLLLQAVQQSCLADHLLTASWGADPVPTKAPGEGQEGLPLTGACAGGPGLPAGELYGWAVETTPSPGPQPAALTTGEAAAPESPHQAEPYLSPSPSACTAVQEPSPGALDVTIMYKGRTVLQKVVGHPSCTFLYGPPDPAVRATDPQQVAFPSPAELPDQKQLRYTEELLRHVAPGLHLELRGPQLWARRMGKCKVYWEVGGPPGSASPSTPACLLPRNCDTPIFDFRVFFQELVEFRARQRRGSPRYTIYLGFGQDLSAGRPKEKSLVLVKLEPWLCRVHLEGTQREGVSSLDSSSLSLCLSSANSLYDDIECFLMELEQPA
Briefly: split Gaussia luciferase complementation (BiLC) in stably transduced THP-1 cells, luciferase activity of lysates after stimulation. Conditions: remark: other sources report otherwise.

These are yes or no findings as the source states them, for the method shown. Some results given as binding are weak or reduced against the parent protein; the word gives no strength. Tags and fused reporters may be left off the sequences shown.

B1: IRF7-GlucN fusion protein, Q92985 1-503 (protein, UniProt Q92985 1-503, looked up, not shown: large carriers)
chain: MALAPERAAPRVLFGEWLLGEISSGCYEGLQWLDEARTCFRVPWKHFARKDLSEADARIFKAWAVARGRWPPSSRGGGPPPEAETAERAGWKTNFRCALRSTRRFVMLRDNSGDPADPHKVYALSRELCWREGPGTDQTEAEAPAAVPPPQGGPPGPFLAHTHAGLQAPGPLPAPAGDKGDLLLQAVQQSCLADHLLTASWGADPVPTKAPGEGQEGLPLTGACAGGPGLPAGELYGWAVETTPSPGPQPAALTTGEAAAPESPHQAEPYLSPSPSACTAVQEPSPGALDVTIMYKGRTVLQKVVGHPSCTFLYGPPDPAVRATDPQQVAFPSPAELPDQKQLRYTEELLRHVAPGLHLELRGPQLWARRMGKCKVYWEVGGPPGSASPSTPACLLPRNCDTPIFDFRVFFQELVEFRARQRRGSPRYTIYLGFGQDLSAGRPKEKSLVLVKLEPWLCRVHLEGTQREGVSSLDSSSLSLCLSSANSLYDDIECFLMELEQPA
Regarding B1, the binding result was “binds”.
